For at least one entry, the source does not settle the construct or the ends of the probe. Weaker means in comparison with the reference protein, sequence or condition of that experiment.
System: MutS
Test: binding assay
Conditions: 3'-C3-SH on strand I, immobilized on gold, diluted with butanethiol, purified recombinant protein

| Sequence | binding result (variant of 20 bp perfect-match duplex (I/II)) | binding result |
| --- | --- | --- |
| AACTACTGGGCCATCGTGAC / GTCACGATGGCCCAGTAGCT [20 bp single A-C mismatch duplex (I/C-II)] | binds | – |
| AACTACTGGGCCATCGTGAC (double strand) [20 bp perfect-match duplex (I/II)] | – | binds more weakly |
